The list shows a part of the results.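 Rule for the calls: active = mitochondrial OCR inhibition above 30% at 1 uM; inactive = 30% or less.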 Repeats are few or missing, and single values can be far off.

The first test deals with Toxoplasma gondii RH tachyzoites. The test is described as follows: inhibition of mitochondrial O2 consumption rate (% inhibition (relative to pre-injection OCR and atovaquone/antimycin A control)); higher = stronger ETC inhibition. The following applies: 1 µM; injection port (sequential injection order): A.
`CC(C)(C)n1nc(-c2ccccc2)c2c(N)ncnc21`: the “inhibition of mitochondrial O2 consumption rate” value (“inhibition” below) was inactive: -3.44. Still for that read-out and setting: the same measure for `COc1cccc(OCC(=O)c2ccc(Br)cc2)c1`: inactive: 1.6; for `COc1ccc(N(CCc2cccc(C)n2)C(C)=O)cc1`: inactive: -6.28.

For `Cc1cc(C)n(-c2ccc(NC(=O)C3CCN(Cc4cnc(C)s4)CC3)cc2)n1`, the “inhibition” value was inactive: -14.1.

For `CC1CCCCN1C(=O)NCCc1coc(-c2ccc(F)cc2)n1` (stereo not drawn), the “inhibition” value is inactive: 2.28. On to `COc1nc2ccc(Br)cc2cc1[C@@H](c1ccccc1)[C@@](O)(CCN(C)C)c1cccc2ccccc12`, for which the “inhibition” value was inactive: -7.33.

For `CC1COC2(CCN(c3nc(=O)c4cc(C(F)(F)F)cc([N+](=O)[O-])c4s3)CC2)O1` (stereo not drawn), the “inhibition” value is inactive: 9.27. Still for that read-out and setting: the same measure for `OCc1ccc(-c2cncc(Nc3cccc(Cl)c3)c2)cc1`: inactive: 3.83; for `CS(=O)(=O)c1ccccc1C(=O)N(Cc1ccccc1)c1ccccc1`: inactive: -1.71.

Regarding `CC(=O)N(CCN(C(=O)c1ccc(F)cc1)c1ccccc1)c1ccccc1`, the “inhibition” value is inactive: -2.87.

As for `CC(C)n1ncc2c(C(=O)NCC(c3cccs3)N3CCOCC3)cc(-c3ccccc3)nc21` (stereo not drawn), the “inhibition” value was inactive: -9.77.

The same test, now with this note: 1 µM; injection port (sequential injection order): B.
As to `COc1cc2ncnc(NC3CCN(Cc4ccccc4)CC3)c2cc1OC`, the “inhibition” value was inactive: -8.73. Same read-out and setting: the figure for `CNc1nnc(Sc2cnn(-c3ccccc3)c(=O)c2Cl)s1` is inactive: 5.62. Still for that read-out and setting: the same measure for `O=[N+]([O-])c1cn2c(n1)OC[C@@H](OCc1ccc(OC(F)(F)F)cc1)C2`: inactive: -18; for `COc1ccccc1C(C)NCC(=O)Nc1cc(C(F)(F)F)ccc1Cl` (stereo not drawn): inactive: -6.07; for `CC(C)c1ncc(-c2ccncc2)c([C@H]2CC[C@H](CNC(=O)c3cccnc3)CC2)n1`: inactive: -3.59.

Regarding `Cc1ccc(C(=O)Nc2ccc(S(=O)(=O)O)c3cc(S(=O)(=O)O)cc(S(=O)(=O)O)c23)cc1NC(=O)c1cccc(NC(=O)Nc2cccc(C(=O)Nc3cc(C(=O)Nc4ccc(S(=O)(=O)O)c5cc(S(=O)(=O)O)cc(S(=O)(=O)O)c45)ccc3C)c2)c1`, the “inhibition” value is inactive: -2.54. The same measure, in the same setting: the same measure for `Cc1cc(C)n2nc(C(=O)Nc3cc(C(F)(F)F)ccc3N3CCOCC3)nc2n1`: inactive: -12.8; for `Cc1ccc(Oc2ccc(NC(=O)CNc3ccccc3N3CCCC3=O)cc2)cc1`: inactive: 3.17; for `Cc1[nH]c2cc(F)cc(F)c2c(=O)c1-c1ccc(Oc2ccc(OC(F)(F)F)cc2)cc1`: active: 77.9. The same measure, in the same setting: the figure for `CC(C)(CN)c1nc(-c2ccc(Cl)c(O)c2)c(-c2ccnc(N)n2)[nH]1` is inactive: -8.91. Still for that read-out and setting: the figure for `CCN(CC)CCCCCCNc1cc(OC)cc2c(C)ccnc12` is inactive: 1.93; for `Cc1ncc(-c2ccnc(Nc3ccc(S(C)(=O)=O)cc3)n2)n1C(C)C` it is inactive: -0.177. As for `COc1cc(NC(C)CCCN)c2ncccc2c1` (stereo not drawn), the “inhibition” value was inactive: -4.49. Same read-out and setting: the same measure for `c1ccc2c(c1)CN(CC1CC1)CC1(CCN(Cc3c[nH]c4cnccc34)CC1)O2`: inactive: 0.14.

Still in this test, the particulars now being: 1 µM; injection port (sequential injection order): C.
Take `COc1cc(C2=NCCN2)cc2cc(-c3ccc(C4=NCCN4)cc3)oc12`: the “inhibition” value is inactive: -14.1. The same measure, in the same setting: the same measure for `CC(C)NCC(=O)Nc1cccc(C(=O)Nc2cccc(C(F)(F)F)c2)c1`: inactive: -19.3; for `CNC(=O)CNc1nc(-c2ccccn2)nc2scc(-c3ccccc3)c12`: inactive: -28.8. As to `CCOc1ccccc1C(=O)Nc1cccc(-c2nc3ncccn3c2C)c1`, the “inhibition” value is inactive: 3.11. Still for that read-out and setting: the figure for `O=C(N[C@H](Cc1ccccc1)C(=O)Nc1ccccc1N1CCOCC1)c1cccs1` is inactive: -6.56; for `CC(=O)NCC1CN(c2ccc(-c3ccc(CO)cc3)c(F)c2)C(=O)O1` (stereo not drawn) it is inactive: -13.5; for `Cc1cc(OCC(=O)NCc2ccccc2)c2cc(Br)ccc2n1` it is inactive: 0.635.

Regarding `N=C(N)Nc1ccc(-c2ccc(-c3ccc(N=C(N)N)c(Cl)c3)o2)cc1Cl`, the “inhibition” value was inactive: 7.92. Same read-out and setting: the same measure for `NC(=O)c1cc(-c2ccsc2)ccc1OCCOc1ccccc1`: inactive: -25.9; for `COc1ccc2nc(C)cc(OCC(=O)Nc3ccccc3OC)c2c1`: inactive: -10.9; for `N#CCN(CCCCN1CCN(c2ccc(F)cc2)CC1)C(=O)OCc1ccccc1`: inactive: -2.07. Same read-out and setting: the same measure for `CC(C)=CCC/C(C)=C\CNCCNC1C2CC3CC(C2)CC1C3` (stereo not drawn): inactive: -19.3; for `COc1ccc(Cn2cnc3c(-c4ccco4)nc(Cl)nc32)cc1`: inactive: 2.21.

For the origin of these results see the supplement of paper PMC10403144.
